Values quoted from earlier work, collected in patent US20140371717A1, “DRUG DELIVERY MEDICAL DEVICE” (Micell Technologies, Inc., priority 2011, published 2014).
At least one compound was matched to its structure with a doubt left.

**Q.** For `CO[C@H]1C[C@@H]2CC[C@@H](C)[C@@](O)(O2)C(=O)C(=O)N2CCCC[C@H]2C(=O)O[C@H]([C@H](C)C[C@@H]2CC[C@@H](O)[C@H](OC)C2)CC(=O)[C@H](C)/C=C(\C)[C@@H](O)[C@@H](OC)C(=O)[C@H](C)C[C@H](C)/C=C/C=C/C=C/1C` [Sirolimus], which “Antiproliferative potency” value is on record?
**A.** 0.1 to 3.5 nM
